Data from PubChem BioAssay AID540276 (National Center for Advancing Translational Sciences (NCATS), 2011).
About 5,400 (1.8%) of roughly 300,000 compounds were called active. Inconclusive means that the source gave no clear call. Such entries were picked first, then a sample of the others. Calls follow the shape of the full dose curve; tested in HEK293 cells. Potencies beside an inconclusive call are fits to weak or partial responses and may not hold up.

assay: qHTS for inhibitors of binding or entry into cells for Marburg Virus; conditions: Marburg virus pseudotyped entry inhibition, cell reporter; series mostly up to 37.8 µM
Potency is read from the fitted curve at half-maximal effect.

SMILES	Potency
Cc1ccn2c(C(=O)c3ccc(Cl)cc3)cnc2c1	inconclusive: 1.26 µM [activator, single point]
CS/C(N)=N/C(=S)Nc1cccc(Cl)c1	inactive
CC(C)(C)c1cc2cccnc2n1Cc1cccc(Cl)c1	inconclusive: 29.1 µM [inhibitor, single point]
COCc1cccc(N2C(=O)CC(C3C=C(C)C4C(=O)N(c5cccc(COC)c5)C(=O)C4C3)C2=O)c1 (stereo not drawn)	inconclusive: 6.31 µM [activator, single point]
Cc1cc(C)cc(N(CCC#N)C(=O)COC(=O)c2ccc(OCc3c(C)noc3C)cc2)c1	inconclusive: 7.94 µM [inhibitor, partial curve, poor fit]
CCCn1c(C)cc(/C=C(\C#N)C(=O)OCC(=O)N(CC)c2c(N)n(Cc3ccccc3)c(=O)[nH]c2=O)c1C	inconclusive: 14.1 µM [activator, partial curve, poor fit]
Cc1cc(=O)n2nc(N3CCCC(C(=O)NC(C)c4ccccc4)C3)sc2n1 (stereo not drawn)	inconclusive: 1.64 µM [activator, partial curve, poor fit]
O=C(CC1CCCC1)Nc1nc2ccccc2[nH]1	inconclusive: 2.82 µM [activator, partial curve, poor fit]
CCOC(=O)c1c(C)[nH]c(C)c1C(=O)COC(=O)C1CC(=O)N(CCc2ccccc2)C1 (stereo not drawn)	inactive
O=C(c1cc2c(s1)CCCC2)N1CCN(Cc2ccc3c(c2)OCO3)CC1	inconclusive: 11.2 µM [inhibitor, single point]
COc1ccccc1N(CC(O)CN1CCC(C)CC1)S(=O)(=O)c1ccccc1 (stereo not drawn)	inconclusive: 14.1 µM [inhibitor, partial curve, poor fit]
Cc1cc2n(c1)CCn1c(C)ccc1-2	inactive
Oc1[nH]c2ccccc2c1C=Nc1ccc2c(c1)OCCO2	inconclusive: 12.6 µM [inhibitor, partial curve, poor fit]
COc1ccc(N2CCN(C(=O)c3ccc(CNS(=O)(=O)c4ccc(C)cc4)cc3)CC2)cc1	inconclusive: 12.6 µM [inhibitor, partial curve, poor fit]
CC1Cc2ccccc2N1C(=O)c1ccc2snnc2c1 (stereo not drawn)	inconclusive: 29.1 µM [inhibitor, single point]
O=C(Nc1ccc2oc(=O)ccc2c1)c1ccc(-c2ccccc2[N+](=O)[O-])o1	inconclusive: 5.62 µM [inhibitor, full curve, poor fit]
O=C1CN(C(=S)Nc2ccccc2Cl)CCN1	inconclusive: 3.98 µM [activator, single point]
COC(=O)CC=C1c2ccccc2[C@@H](O)[C@@H]1C	inconclusive: 3.76 µM [activator, partial curve, poor fit]
COc1ccc(C(=O)NCC(c2ccco2)N2CCc3ccccc32)c(OC)c1 (stereo not drawn)	inconclusive: 11.2 µM [inhibitor, partial curve, poor fit]
c1ccc(NC2=Nc3cccc4cccc2c34)cc1	inactive
CSc1ccc(/C=N/N2CCN(Cc3ccc(Cl)cc3)CC2)cc1	inactive
Cc1n[nH]c(C)c1C(=O)CC1(O)C(=O)N(CCc2ccccc2)c2ccc(Cl)cc21 (stereo not drawn)	inconclusive: 1.26 µM [activator, partial curve, poor fit]
O=S(=O)(c1ccc(Cl)cc1)N1CCN(c2ncnc3sccc23)CC1	inconclusive: 17.8 µM [inhibitor, single point]

SMILES	Potency
CCN(C(=O)COC(=O)C(C)(C)Oc1ccc(Cl)cc1)c1c(N)n(Cc2ccccc2)c(=O)[nH]c1=O	inconclusive: 0.562 µM [inhibitor, full curve, poor fit]
CCn1cc(Cl)c(C(=O)N2N=C(c3ccc4ccccc4c3)CC2c2ccccc2O)n1 (stereo not drawn)	inconclusive: 15.8 µM [inhibitor, single point]
COc1cccc2cc(C(C)N(CCCN3CCOCC3)C(=S)Nc3cc(C)cc(C)c3)oc12 (stereo not drawn)	inconclusive: 35.5 µM [inhibitor, single point]
CC(=O)Oc1ccc2cc(-c3nc4ccccc4n3C)c(=O)oc2c1	inactive
COc1ccc2nc(NC(=O)Nc3ccccc3)sc2c1	inconclusive: 7.31 µM [inhibitor, partial curve, poor fit]
C/C(=N/NC(=O)c1ccccc1)C(=O)O	inactive
CC(C)C[C@H](NC(=O)OC(C)(C)C)C(=O)N1CCC(C(=O)N[C@@H](Cc2c[nH]c3ccccc23)C(=O)O)CC1	inactive
CCCC(=O)OCC(=O)Nc1ccc2c(c1)OCO2	inconclusive: 5.62 µM [inhibitor, single point]
COc1cccc(C2CC(=O)Nc3cc4c(cc32)OCO4)c1OC(C)C (stereo not drawn)	inconclusive: 15.8 µM [inhibitor, partial curve, poor fit]
CCC1CCCCN1C(=O)CSc1nnc(-c2cccs2)o1 (stereo not drawn)	inconclusive: 0.562 µM [activator, partial curve, poor fit]
CNC(=O)NC(=O)C(C)OC(=O)c1ccc(Cl)c(S(=O)(=O)Nc2ccc(F)cc2)c1 (stereo not drawn)	inconclusive: 3.16 µM [activator, single point]
Cc1cccc(C(=O)NC(C)C(c2cccs2)N2CCOCC2)c1 (stereo not drawn)	inconclusive: 25.1 µM [inhibitor, single point]
Cc1ccc(-c2nc3cc(Cl)ccc3o2)cc1NC(=O)c1cc([N+](=O)[O-])ccc1N1CCOCC1	inactive
Cc1ccccc1N1CCN(C2CCCN(C(=O)c3noc4c3CCCC4)C2)CC1 (stereo not drawn)	inconclusive: 20 µM [inhibitor, partial curve, poor fit]
CC(NCc1nc2ccccc2n1C)C12CC3CC(CC(C3)C1)C2 (stereo not drawn)	active: 11.2 µM
Cc1ccc(S(=O)(=O)N2CCN(C(=O)C3CCN(C(=O)c4ccccc4C)CC3)CC2)cc1C	inconclusive: 35.5 µM [inhibitor, partial curve, poor fit]
CN(C)/C=C(\C#N)C(N)=C(C#N)C#N	inconclusive: 35.5 µM [inhibitor, single point]
COc1cc(CNc2nc3c(C)cc(C)cc3s2)ccc1O	inconclusive: 35.5 µM [inhibitor, single point]
O=S(=O)(c1ccc(Cl)cc1)c1cnc(-c2cccnc2)nc1-c1ccccc1	inactive
CCN(CC)C(=O)CSc1nc2c(sc(=S)n2-c2ccccc2)c(=O)n1Cc1ccco1	active: 9.2 µM
O=C(NCc1ccc(Cl)cc1)c1ccc(COCC(F)(F)F)o1	inconclusive: 0.562 µM [activator, single point]
CC(=O)N1N=C(C)CC1c1ccc(OCc2ccccc2)cc1 (stereo not drawn)	inconclusive: 0.708 µM [activator, full curve, poor fit]
CS(=O)(=O)N(CC(=O)Nc1ccc(F)cc1)C1CCCCC1	inconclusive: 3.55 µM [inhibitor, single point]

5 consecutive compounds out of the list so far:
SMILES	Potency
CC(=O)Oc1ccc2cc(-c3nc4ccccc4n3C)c(=O)oc2c1	inactive
COc1ccc2nc(NC(=O)Nc3ccccc3)sc2c1	inconclusive: 7.31 µM [inhibitor, partial curve, poor fit]
C/C(=N/NC(=O)c1ccccc1)C(=O)O	inactive
CC(C)C[C@H](NC(=O)OC(C)(C)C)C(=O)N1CCC(C(=O)N[C@@H](Cc2c[nH]c3ccccc23)C(=O)O)CC1	inactive
CCCC(=O)OCC(=O)Nc1ccc2c(c1)OCO2	inconclusive: 5.62 µM [inhibitor, single point]

(next part)

SMILES	Potency
CC(=O)Nc1ccc2ccccc2c1	inactive
COc1ccc(C)cc1S(=O)(=O)N1CCc2ccccc2C1	inconclusive: 3.98 µM [inhibitor, partial curve, poor fit]
CCCOc1ccc(/C=N/Nc2ccccc2[N+](=O)[O-])c(O)c1	active: 4.47 µM
COc1cc(OC)c(OC)cc1/C=N/NC(=O)c1cnccn1	inactive
CCOC(=O)N1CCN(C(=O)c2nc3ccccc3s2)CC1	inconclusive: 25.1 µM [activator, single point]
Cc1nonc1NC(=O)N1CCCC1	inactive
CC1CCN(c2ccccc2NC(=O)c2ccc([N+](=O)[O-])o2)CC1	inactive
CCN1CCN(C(=S)Nc2ccc3nc(N4CCN(C)CC4)cc(C)c3c2)CC1	inconclusive: 10 µM [inhibitor, partial curve, poor fit]
N#CC(c1ccncc1)(c1ncc(C(F)(F)F)cc1Cl)N1CCOCC1 (stereo not drawn)	inconclusive: 35.5 µM [inhibitor, single point]
COc1cc(C(=O)NCc2nnc(SCC(=O)N3CCCc4ccccc43)o2)cc(OC)c1OC	inactive
C[C@]12CCC3C(CC[C@H]4CCCC[C@]34C)C1CC[C@@]2(O)CNCCO (stereo partly drawn)	inactive
Cc1cccc(NC(=O)c2ccc(Cn3cc(C(F)(F)F)ccc3=O)cc2)c1	inconclusive: 35.5 µM [inhibitor, single point]
CC(NCc1ccc2c(c1)OCO2)c1ccccc1 (stereo not drawn)	inconclusive: 25.1 µM [inhibitor, single point]
COc1ccc(NC(=S)NNC(=O)COc2ccc(Cl)cc2Cl)cc1	inconclusive: 0.447 µM [activator, full curve, poor fit]
Cc1cc(C(=O)N2CCCC(C(=O)c3cc(F)ccc3F)C2)c(C)o1 (stereo not drawn)	inconclusive: 6.31 µM [inhibitor, full curve, poor fit]
CCCCCOC(=O)C1C(c2ccccc2)C(C(=O)O)C1c1ccccc1 (stereo not drawn)	inactive
CC1=CC(C)C2COC(c3ccc[n+](C)c3)C1C2C (stereo not drawn)	inactive
COc1ccc(N2C(=O)c3ccc(NC(C)=O)cc3C2=O)cc1	inactive
COc1cccc(NC(=O)Cn2cc(C(=O)c3ccccc3)c3ccccc32)c1	inconclusive: 1.58 µM [inhibitor, partial curve, poor fit]
Cc1nc2ccccn2c1C(=O)N/N=C/c1ccc2c(c1)OCO2	inactive
O=C(COC(=O)c1ccccc1)Nc1ccc(Cl)cn1	inactive
CCc1c(C)sc(NC(=O)CSc2nc3c(c(C(F)(F)F)n2)CCc2ccccc2-3)c1C#N	inconclusive: 25.9 µM [inhibitor, partial curve, poor fit]
